Test results published in patent publication US20060088598A1, “Intravenous composition, process for producing the same and preparation thereof” (LTT Bio-Pharama Co., Ltd., priority 2002, published 2006).

How the values were obtained:
[1] = Encapsulation ratio of agents in PLGA microparticles (HPLC of supernatant and deposit); format: physicochemical; conditions: FIG. 1; microparticles of Example 1
Description: 100 mg of PLGA (Wako) or PLA (Wako), 10 mg of egg yolk lecithin, and 0.5 mg of an agent were dissolved in 1 ml of dichloromethane. While cooling in an ice bath, the obtained solution was slowly added dropwise, through a 27G needle, to 25 ml of distilled water, which was being stirred with Polytron PT-2100 (Kinematica) or an ultrasonic generator (TOMY). After the stirring was continued for 10 minutes, the mixture was further stirred with a stirrer at room temperature for 2 hours. Thereafter, dichloromethane was removed. The obtained microparticles were concentrated by ultra filtration (Amicon, Centriprep YM-10) and were then purified by gel filtration (Pharmacia, PD-10). The thus obtained particles were centrifuged at 13,000 g for 10 minutes, and the agent contained in the supernatant and deposit was assayed by HPLC. HPLC analysis was carried out in a water/acetonitrile system for measuring the absorption at 210 nm or 240 nm using a C4 reverse phase column (Waters, Symmetry 300). With regard to agents, PGE1, and ASO06 produced by esterifying carboxylic acid and a hydroxyl group thereof, were used as prostanoids. Hydrocortisone, hydrocortisone acetate, hydrocortisone butyrate propionate (HBP), betamethazone, and betamethazone dipropionate (BDP) were used as steroids.

arthritis model rat = experiment: Inflammation inhibitory effect in arthritis model rat (foot swelling, volume meter); format: in vivo; conditions: FIG. 9
Description: 100 μl of an adjuvant suspension containing 6 mg/ml dry M. Butyricum was intravenously injected through the tail head portion of a rat. 6 days later, 100 μl of a physiological salt solution containing 1% carrageenin was injected into the sole of the left foot thereof, so as to produce a continued 1 arthritis model rat (Y. Mizushima et al., J. Pharm. Pharmac., 1972, 24, 781-785). At 24 hours after administration of carrageenin, the BDP-containing PLGA preparation produced in Example 2 (50 μg/rat betamethazone) was injected into the caudal vein thereof, and the swelling of the foot of the rat was measured with a volume meter over time. As a control, there was used a rat into which betamethazone phosphate was subcutaneously injected, having the same titer as that of a rat into the caudal vein of which PBS alone was injected.

Structure (SMILES)	encapsulation ratio in PLGA microparticle [1]	inhibition of foot swelling (arthritis model rat; 1st day, 50 μg/rat betamethazone, PLGA preparation into caudal vein, betamethazone phosphate subcutaneously)	inhibition of foot swelling (arthritis model rat; after the 1st day, same dosing)
C[C@H]1C[C@H]2[C@@H]3CCC4=CC(=O)C=C[C@]4(C)[C@@]3(F)[C@@H](O)C[C@]2(C)[C@@]1(O)C(=O)CO [betamethazone]	almost neither hydrocortisone nor betamethazone could be encapsulated	–	–
C[C@H]1C[C@H]2[C@@H]3CCC4=CC(=O)C=C[C@]4(C)[C@@]3(F)[C@@H](O)C[C@]2(C)[C@@]1(O)C(=O)COP(=O)(O)O [betamethazone phosphate]	–	swelling was strongly inhibited	inhibitory effects rapidly decreased
